PubChem BioAssay AID1259308, NCATS, 2017

Purpose: 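Knock-downs that increase output of a recombinant reporter protein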 (primary screen)
System: human HEK293 embryonic kidney cells stably expressing firefly luciferase (HEK-CMV-Luc2-Hygro)
Reagent: single siRNA against human genes, 0.8 pmol siRNA per well
Time to read-out: 72 h
Measured: 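Luciferase light (ONE-Glo) measured on one replicate plate set and viability (CellTiter-Glo) on the other, scaled to a negative control siRNA, with robust z-scores and luciferase per cell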
Direction: total luciferase, z-score: higher = more reporter protein produced
Rule for the call: 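An siRNA counts as active if its total luciferase robust z-score exceeds 3; genes with two or more such siRNAs out of three were retested with fresh siRNAs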
Meaning of the calls: active = raised luciferase; inactive = no rise
The deposit covers about 59,000 reagents; shown is an unselected part. Over the whole deposit, about 1,510 (2.6%) got an active call. 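Calls use total luciferase alone and ignore viability, so some active siRNAs may act by altering cell number.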 Entries without a mark were called inactive. Reagents against one gene are numbered here. Further read-outs or replicates are left out here.

no.	gene	reagent	total luciferase, z-score
1	PTPN14 (protein tyrosine phosphatase non-receptor type 14)	1	-1.84
2	PTPN14 (protein tyrosine phosphatase non-receptor type 14)	2	-1.11
3	PTPN14 (protein tyrosine phosphatase non-receptor type 14)	3	0.645
4	PRDM15 (PR/SET domain 15)	1	1.17
5	PRDM15 (PR/SET domain 15)	2	3.39 (active)
6	PRDM15 (PR/SET domain 15)	3	0.0586
7	FKBP10 (FKBP prolyl isomerase 10)	1	-0.296
8	FKBP10 (FKBP prolyl isomerase 10)	2	1.26
9	FKBP10 (FKBP prolyl isomerase 10)	3	-0.678
10	CDC14B (cell division cycle 14B)	1	0.242
11	CDC14B (cell division cycle 14B)	2	-0.219
12	CDC14B (cell division cycle 14B)	3	-0.0458
13	DENND2D (DENN domain containing 2D)	1	2.95
14	DENND2D (DENN domain containing 2D)	2	-1.53
15	DENND2D (DENN domain containing 2D)	3	0.186
16	SNCA (synuclein alpha)	1	-0.659
17	SNCA (synuclein alpha)	2	-0.522
18	SNCA (synuclein alpha)	3	0.562
19	SUGT1P4-STRA6LP-CCDC180 (SUGT1P4-STRA6LP-CCDC180 readthrough)	1	0.609
20	SUGT1P4-STRA6LP-CCDC180 (SUGT1P4-STRA6LP-CCDC180 readthrough)	2	-0.783
21	SUGT1P4-STRA6LP-CCDC180 (SUGT1P4-STRA6LP-CCDC180 readthrough)	3	1.86
22	CPD (carboxypeptidase D)	1	-0.48
23	CPD (carboxypeptidase D)	2	0.502
24	CPD (carboxypeptidase D)	3	-0.661
25	ARRDC4 (arrestin domain containing 4)	1	-0.308
26	ARRDC4 (arrestin domain containing 4)	2	1.47
27	ARRDC4 (arrestin domain containing 4)	3	-2.25

Next part; the last 8 above are carried over.
no.	gene	reagent	total luciferase, z-score
20	SUGT1P4-STRA6LP-CCDC180 (SUGT1P4-STRA6LP-CCDC180 readthrough)	2	-0.783
21	SUGT1P4-STRA6LP-CCDC180 (SUGT1P4-STRA6LP-CCDC180 readthrough)	3	1.86
22	CPD (carboxypeptidase D)	1	-0.48
23	CPD (carboxypeptidase D)	2	0.502
24	CPD (carboxypeptidase D)	3	-0.661
25	ARRDC4 (arrestin domain containing 4)	1	-0.308
26	ARRDC4 (arrestin domain containing 4)	2	1.47
27	ARRDC4 (arrestin domain containing 4)	3	-2.25
28	ROCK1P1	1	0.292
29	ROCK1P1	2	3.27 (active)
30	ROCK1P1	3	-1.81
31	PKDREJ (polycystin family receptor for egg jelly)	1	2.89
32	PKDREJ (polycystin family receptor for egg jelly)	2	-1.28
33	PKDREJ (polycystin family receptor for egg jelly)	3	0.29
34	SIGMAR1 (sigma receptor chaperone 1)	1	2.05
35	SIGMAR1 (sigma receptor chaperone 1)	2	1.02
36	SIGMAR1 (sigma receptor chaperone 1)	3	4.6 (active)
37	SLC34A1	1	1.33
38	SLC34A1	2	1.41
39	SLC34A1	3	-1.29
40	ACOX1 (acyl-CoA oxidase 1)	1	-1.38
41	ACOX1 (acyl-CoA oxidase 1)	2	1.23
42	ACOX1 (acyl-CoA oxidase 1)	3	0.482
43	DHRS2 (dehydrogenase/reductase 2)	1	3.16 (active)
44	DHRS2 (dehydrogenase/reductase 2)	2	2.52
45	DHRS2 (dehydrogenase/reductase 2)	3	-0.0815
46	TSPAN3 (tetraspanin 3)	1	0.952
47	TSPAN3 (tetraspanin 3)	2	-0.00775
48	TSPAN3 (tetraspanin 3)	3	1.3
49	ARHGAP32 (Rho GTPase activating protein 32)	1	1.35
50	ARHGAP32 (Rho GTPase activating protein 32)	2	0.0718
51	ARHGAP32 (Rho GTPase activating protein 32)	3	0.337
52	RABGAP1 (RAB GTPase activating protein 1)	1	-0.205
53	RABGAP1 (RAB GTPase activating protein 1)	2	-0.327
54	RABGAP1 (RAB GTPase activating protein 1)	3	-0.749
55	CEP83 (centrosomal protein 83)	1	0.146
56	CEP83 (centrosomal protein 83)	2	-1.38
57	CEP83 (centrosomal protein 83)	3	0.245
